For one substance, binding results are on record in paper PMC7139787.

This assay addresses T1, RipX1 (Ralstonia solanacearum harpin-like protein RipX), bait in pGBKT7 (Ralstonia solanacearum) (UniProt Q9RBS0).
T1 sequence: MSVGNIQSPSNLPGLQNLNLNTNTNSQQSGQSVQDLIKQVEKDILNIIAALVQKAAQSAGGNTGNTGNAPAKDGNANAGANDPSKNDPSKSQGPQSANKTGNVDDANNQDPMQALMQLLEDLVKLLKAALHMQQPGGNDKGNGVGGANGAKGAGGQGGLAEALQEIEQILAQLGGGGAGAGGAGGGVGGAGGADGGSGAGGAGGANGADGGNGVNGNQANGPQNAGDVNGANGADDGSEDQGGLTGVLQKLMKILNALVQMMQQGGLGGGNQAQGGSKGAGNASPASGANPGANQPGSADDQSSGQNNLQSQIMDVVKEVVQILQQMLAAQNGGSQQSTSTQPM
The assay can be described thus: two-hybrid.

These are yes or no findings as the source states them, for the method shown. A result given as binding can be weak or reduced; the word gives no strength.

For the substance “mitochondrial ATP synthase F1 subunit alpha (ATPA) of N. benthamiana, prey in pGADT7 (Nicotiana benthamiana)”, the binding result is listed as “binds”.
